# Results deposited as PubChem BioAssay AID686937 (Drosophila RNAi Screening Center, 2013).
# Test: 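Knock-downs that reduce output of a secreted reporter enzyme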 (primary screen)
# Cell system: Drosophila S2 cells expressing secreted horseradish peroxidase
# Reagent: long dsRNA against Drosophila genes
# Duration: about 5.5 days (5 days dsRNA, then 12 h reporter induction)
# Challenge: reporter expression induced after 5 days of dsRNA, read 12 h later; inducer not stated
# Detection: 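After 5 days of dsRNA and 12 h of reporter induction, medium peroxidase read by chemiluminescence and scored as per-plate z-score; higher values mean more reporter released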
# Scale: z-score: higher = more reporter secreted into medium
# The deposit covers about 23,000 reagents; this is an unselected part of those that have a named target and a result. 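Reduced-secretion tags in replicate 1 do not always agree with the z-scores; no criterion for assigning the tags was given.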 Names joined by + are all predicted targets of the reagent. The record does not give: the amount of reagent.
Target gene,amplicon,"z-score, replicate 1","z-score, replicate 2","z-score, replicate 3","z-score, replicate 4","phenotype, replicate 1"
CG30385,DRSC06031,0.29,0.21,,,
Duba,DRSC10582,0.49,0.47,,,
CG8314,DRSC07144,0.13,0.24,,,
MFS3,DRSC00664,0.23,0.29,,,
CG7326,DRSC20037,-0.17,0.46,,,
Rab3GAP1,DRSC00291,0.21,0.02,,,
Rab3GAP1,DRSC00703,0.08,0.17,,,
eIF3i,DRSC03464,-2.55,-3,,,reduced secretion
Slc25A46a,DRSC20125,0.34,0.32,,,
CG14518,DRSC14870,0.27,0.58,,,
CG33308,DRSC01419,-0.15,0.04,,,
CG7378,DRSC20041,-0.26,0.27,,,
Saysd1,DRSC14664,0.31,0.26,,,
RpS15Ab + RpS15Aa,DRSC06129,-2.58,-3.29,,,reduced secretion
RpS15Ab + RpS15Aa,DRSC19831,-1.93,-2.64,,,reduced secretion
muskelin,DRSC07273,0.37,0.31,,,
CG17528,DRSC07761,0.24,0.21,,,
Ak2,DRSC04043,-0.11,-1.42,,,
cwo,DRSC17072,-1.75,-0.97,,,reduced secretion
Ice2,DRSC14268,0.38,0.52,,,
GstE11,DRSC06926,0.21,0.15,,,
MICU1,DRSC02752,0.1,0.1,,,
DEF8,DRSC09840,0.35,0.34,,,
Fbw5,DRSC03146,0.13,-0.02,,,
Tim9a,DRSC19753,0.44,0.66,,,
CG11458,DRSC11666,0.34,0.36,,,
CG12645,DRSC17851,0.28,0.37,,,
CG34057,DRSC08375,0.22,0.3,,,
CG10877,DRSC14274,0.25,0.34,,,
CG31551,DRSC12159,0.14,0.3,0.28,0.21,
CG31551,DRSC22403,-0.22,-0.1,,,
CG6689,DRSC16095,0.39,0.4,,,
CG11425,DRSC11657,0.09,0.37,,,
CG9801,DRSC16568,0.33,0.38,,,
CG32100,DRSC09725,0.1,0.42,,,
CG32100,DRSC10331,0.21,0.28,,,
CG10738,DRSC09792,0.47,0.46,,,
CG33523,DRSC09814,0.12,0.29,,,
CG33523,DRSC22155,-1.05,-0.03,,,
CG8405,DRSC05599,0.38,0.58,,,
CG8405,DRSC07166,0.02,0.09,,,
stas,DRSC20104,-0.11,0.4,,,
Ykt6,DRSC17970,-2.23,-4.03,,,reduced secretion
CG14194,DRSC19549,-0.08,0.17,,,
CG15548,DRSC15086,0.2,0.52,,,
CG33062,DRSC22195,1.37,0.39,,,
CG2278,DRSC18226,0.26,0.65,,,
Rab1,DRSC16808,-6.03,-6.85,,,reduced secretion
Mpcp2,DRSC11226,-0.06,-0.01,,,
ea,DRSC16939,0.41,0.41,,,
Fak,DRSC07426,0.11,0.34,,,
CG8243,DRSC07122,0.35,0.53,,,
CG8243,DRSC22608,-0.44,-0.17,,,
Meics,DRSC11413,0.08,-0.08,,,
THG,DRSC01896,-0.08,0.05,,,
alpha-Spec,DRSC08704,0.24,0.39,,,
Cep164,DRSC20163,0.05,0.18,,,
CAH3,DRSC17776,0,0.38,,,
sno,DRSC20378,0.52,0.61,,,
Cdep,DRSC12028,0.27,-0.57,,,
Cdep,DRSC12220,0.21,0.47,,,
Cdep,DRSC12291,-1.5,0.23,,,
reb,DRSC06308,0.39,0.37,,,
CG33225,DRSC03881,0,-0.84,,,
Ald1,DRSC14109,-1.7,-1.5,,,reduced secretion
Nmdmc,DRSC16760,0.39,0.46,,,
CG17207,DRSC15198,0.16,-0.21,,,
Ccp84Ac,DRSC12588,0.34,0.48,,,
GstE1,DRSC07437,0.21,0.28,,,
CG10237,DRSC02029,0.37,0.4,,,
RfC4,DRSC08691,0.19,0.4,,,
Pdfr,DRSC18614,-0.13,-0.55,,,
CG15533,DRSC15069,0.43,0.51,,,
Tpl94D,DRSC13593,0.51,0.49,,,
CG18294 + 825-Oak + CG32214 + 2 more,DRSC22210,0.23,0.59,,,
homer,DRSC03547,0.39,0.16,,,
CG7548,DRSC10874,0.41,0.36,,,
LanB1,DRSC03360,0.06,0.37,,,
car,DRSC20316,0.05,0.17,,,
Asph,DRSC06783,0.56,0.15,,,
Asph,DRSC07171,0.37,0.31,,,
Ipk1,DRSC04235,0.7,0.61,,,
Ipk1,DRSC04236,0.17,0.37,,,
Ipk1,DRSC04237,0.28,0.5,,,
Ilp7,DRSC17895,0.49,0.31,,,
Gat,DRSC17144,0.3,0.21,,,
CG43234 (retired record),DRSC01786,0.48,0.29,,,
Or88a,DRSC16770,0.26,0.69,,,
CR32733 + CG32797,DRSC17705,-2.74,-2.1,0.43,0.26,reduced secretion
spo,DRSC11127,0.13,-0.13,,,
CG42541,DRSC17973,0.47,0.33,,,
CG42541,DRSC18119,-5.94,-2.72,,,reduced secretion
CG42541,DRSC18120,0.49,0.63,,,
Polr2J,DRSC02995,-0.3,-0.85,,,
Hasp,DRSC02022,0.25,0.23,,,
Rop,DRSC08693,-0.06,-0.22,,,
Obp47b + CG7741,DRSC06330,0.35,0.44,,,
ETH + asRNA:CR43257,DRSC04612,0.19,0.19,,,
Map60,DRSC07464,0.52,0.49,,,
JhI-21,DRSC02161,0.15,0.13,,,
Flo2,DRSC19062,-0.27,0.51,,,
Flo2,DRSC20244,0.09,0.14,,,
ast,DRSC00803,0.5,0.38,,,
l(1)10Bb,DRSC20346,-2.08,-1.08,,,reduced secretion

Targets listed so far whose gene name begins with E or e (3):
Target gene,amplicon,"z-score, replicate 1","z-score, replicate 2","z-score, replicate 3","z-score, replicate 4","phenotype, replicate 1"
eIF3i,DRSC03464,-2.55,-3,,,reduced secretion
ea,DRSC16939,0.41,0.41,,,
ETH + asRNA:CR43257,DRSC04612,0.19,0.19,,,
